End groups of sequences in plain letters are not given here.
Assay: general procedure: Fmoc solid-phase peptide synthesis; Rink resin 0.7 mmol/g; Wang resin 0.6 mmol/g; Fmoc-Trp(Boc)-Wang; Fmoc-D-Trp(Boc)-Wang; Fmoc-β-Ala-Wang; Fmoc-Asp(Wang r); HOBt/DIC (PEG coupling)
Details: whole synthesis, RP-HPLC, scale of the general procedure 0.1-0.2 mmol

Substance	crude HPLC purity	final HPLC purity
KLWKKWAKKWLKLWKAW	30%-45%	
CXRRWWRF-NH2	27%	
CXFVQWFSKFLGRIL-NH2	22%	
CGGGGYKLLKLLLPKLKGLLFKL-NH2	27.6%	
CXKLWKKWAKKWLKLWKAW	15%-20%	73%
CGGGRRWWRF-NH2	30%-50%	95%
CGGGGKLWKKWAKKWLKLWKAW	15%-20%	73%
GGGGKLWKKWAKKWLKLWKAW	20%	

Reference: US9175036B2 (BEN-GURION UNVERSITY OF THE NEGEV RESEARCH AND DEVELOPMENT …, priority 2009, dated 2015)
